{"source": "the supplement of paper PMC5662767", "system": "Drosophila S2 cl14 SmoIP sensor cells", "test": "normalized SmoIP GFP fluorescence (untreated unstimulated = 0%, untreated Hh-stimulated = 100%); higher = more Smo activation sensor fluorescence", "conditions": "compound concentration: 15 uM, 24 h", "key": {"[1]": {"conditions": "stimulation: Hh conditioned medium (+Hh)"}, "[2]": {"conditions": "stimulation: mock conditioned medium (-Hh)"}}, "note": "Where a name gives a salt, the structure may show the parent alone. Some of the results follow. Baselines shift from plate to plate; read single values as rough.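 Smoothened with circularly permuted GFP in its cytoplasmic tail is carried by a clonal Drosophila S2 line; fluorescence appears when Hh-driven phosphorylation opens an inhibitory loop. Per-cell signal, read by flow cytometry, was scaled to Hh-stimulated untreated cells. Hits were consistent fluorescence-shifting groups of inhibitors sharing pathway targets, not single compounds.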", "data": [{"smiles": "CCOc1ccc(NC(C)=O)cc1", "note": "[phenacetin]", "values": [{"measurement": "normalized SmoIP GFP fluorescence", "setting": "[1]", "value": 135, "unit": "%"}, {"measurement": "normalized SmoIP GFP fluorescence", "setting": "[2]", "value": -13.7, "unit": "%"}]}, {"smiles": "C[C@]12CCC(=O)C=C1[C@@H]1C[C@@H]1[C@H]1[C@@H]3[C@@H]4C[C@@H]4[C@@]4(CCC(=O)O4)[C@@]3(C)CC[C@@H]12", "note": "[Drospirenone]", "values": [{"measurement": "normalized SmoIP GFP fluorescence", "setting": "[1]", "value": 192, "unit": "%"}, {"measurement": "normalized SmoIP GFP fluorescence", "setting": "[2]", "value": 48.9, "unit": "%"}]}, {"smiles": "Cc1nccn1CC1CCc2c(c3ccccc3n2C)C1=O", "note": "(stereo not given) [Ondansetron-hydrochloride]", "values": [{"measurement": "normalized SmoIP GFP fluorescence", "setting": "[1]", "value": 143, "unit": "%"}, {"measurement": "normalized SmoIP GFP fluorescence", "setting": "[2]", "value": 4.8, "unit": "%"}]}, {"smiles": "C[C@H](Oc1cc(-c2cnn(C3CCNCC3)c2)cnc1N)c1c(Cl)ccc(F)c1Cl", "note": "[s-crizotinib]", "values": [{"measurement": "normalized SmoIP GFP fluorescence", "setting": "[1]", "value": 144, "unit": "%"}, {"measurement": "normalized SmoIP GFP fluorescence", "setting": "[2]", "value": 63.2, "unit": "%"}]}, {"smiles": "CO[C@H]1C[C@@H]2CC[C@@H](C)[C@@](O)(O2)C(=O)C(=O)N2CCCC[C@H]2C(=O)O[C@H]([C@H](C)C[C@@H]2CC[C@@H](O)[C@H](OC)C2)CC(=O)[C@H](C)/C=C(\\C)[C@@H](O)[C@@H](OC)C(=O)[C@H](C)C[C@H](C)/C=C/C=C/C=C/1C", "note": "[Rapamycin]", "values": [{"measurement": "normalized SmoIP GFP fluorescence", "setting": "[1]", "value": 94.3, "unit": "%"}, {"measurement": "normalized SmoIP GFP fluorescence", "setting": "[2]", "value": 38.5, "unit": "%"}]}, {"smiles": "COc1ccc(-c2oc3c(CC=C(C)C)c(O[C@@H]4O[C@H](CO)[C@@H](O)[C@H](O)[C@H]4O)cc(O)c3c(=O)c2O[C@@H]2O[C@@H](C)[C@H](O)[C@@H](O)[C@H]2O)cc1", "note": "[Icariin]", "values": [{"measurement": "normalized SmoIP GFP fluorescence", "setting": "[1]", "value": 115, "unit": "%"}, {"measurement": "normalized SmoIP GFP fluorescence", "setting": "[2]", "value": -2.82, "unit": "%"}]}, {"smiles": "CC(C)NC[C@@H](C(=O)N1CCN(c2ncnc3c2[C@H](C)C[C@H]3O)CC1)c1ccc(Cl)cc1", "values": [{"measurement": "normalized SmoIP GFP fluorescence", "setting": "[1]", "value": 84.4, "unit": "%"}, {"measurement": "normalized SmoIP GFP fluorescence", "setting": "[2]", "value": 4.79, "unit": "%"}]}, {"smiles": "CCOC(=O)[C@H](CCc1ccccc1)N[C@@H](C)C(=O)N1Cc2cc(OC)c(OC)cc2C[C@H]1C(=O)O", "note": "[moexipril-hydrochloride]", "values": [{"measurement": "normalized SmoIP GFP fluorescence", "setting": "[1]", "value": 132, "unit": "%"}, {"measurement": "normalized SmoIP GFP fluorescence", "setting": "[2]", "value": -12.7, "unit": "%"}]}, {"smiles": "CC1(C)CC(=O)c2c(C(F)(F)F)nn(-c3ccc(C(N)=O)c(N[C@H]4CC[C@H](OC(=O)CN)CC4)c3)c2C1", "values": [{"measurement": "normalized SmoIP GFP fluorescence", "setting": "[1]", "value": 270, "unit": "%"}, {"measurement": "normalized SmoIP GFP fluorescence", "setting": "[2]", "value": 59.4, "unit": "%"}]}, {"smiles": "Nc1cccc2c1C(=O)N(C1CCC(=O)NC1=O)C2=O", "note": "(stereo not given) [Pomalidomide(CC-4047)]", "values": [{"measurement": "normalized SmoIP GFP fluorescence", "setting": "[1]", "value": 148, "unit": "%"}, {"measurement": "normalized SmoIP GFP fluorescence", "setting": "[2]", "value": 1.89, "unit": "%"}]}, {"smiles": "COC1CCN(C(=O)c2cc(Cc3n[nH]c(=O)c4ccccc34)ccc2F)CC1", "values": [{"measurement": "normalized SmoIP GFP fluorescence", "setting": "[1]", "value": 118, "unit": "%"}, {"measurement": "normalized SmoIP GFP fluorescence", "setting": "[2]", "value": -3.9, "unit": "%"}]}, {"smiles": "COc1ccc2c(Oc3ccc(NC(=O)c4c(C)n(CC(C)(C)O)n(-c5ccccc5)c4=O)nc3)ccnc2c1", "values": [{"measurement": "normalized SmoIP GFP fluorescence", "setting": "[1]", "value": 180, "unit": "%"}, {"measurement": "normalized SmoIP GFP fluorescence", "setting": "[2]", "value": 20.3, "unit": "%"}]}, {"smiles": "Nc1ccc(C(=O)Nc2cccc(-c3nc(N4CCOCC4)c4oc5ncccc5c4n3)c2)cn1", "values": [{"measurement": "normalized SmoIP GFP fluorescence", "setting": "[1]", "value": 247, "unit": "%"}, {"measurement": "normalized SmoIP GFP fluorescence", "setting": "[2]", "value": 95.2, "unit": "%"}]}, {"smiles": "C#CCN[C@@H]1CCc2ccccc21", "note": "[rasagiline-mesylate]", "values": [{"measurement": "normalized SmoIP GFP fluorescence", "setting": "[1]", "value": 131, "unit": "%"}, {"measurement": "normalized SmoIP GFP fluorescence", "setting": "[2]", "value": -21.2, "unit": "%"}]}, {"smiles": "CN(C)CCC(c1ccc(Br)cc1)c1ccccn1", "note": "(stereo not given) [brompheniramine]", "values": [{"measurement": "normalized SmoIP GFP fluorescence", "setting": "[1]", "value": 134, "unit": "%"}, {"measurement": "normalized SmoIP GFP fluorescence", "setting": "[2]", "value": 4.3, "unit": "%"}]}]}
